For part of these data: The hits were mostly taken out for another list; the other results follow. Records with an inconclusive call do not appear. The entries are a selection whose mix differs from that of the whole data set. Activity calls are given as the source filed them. How the source made its calls, unless noted: active means hit-call score of the fitted dose curve at least 0.9, where 1 is the maximum; inconclusive means response in the unintended direction; inactive means score below 0.9.
Columns and labels:
[1] = CEETOX_H295R_OHPREG: CeeTox H295R High-throughput Steroidogenesis Assay for OH-Pregnenolone (OHPREG) (AID 2283434; active means hit-call score of the fitted dose curve at least 0.9, where 1 is the maximum; inactive means score below 0.9); details: actives raise or lower the signal
[2] = ACEA_AR_antagonist_AUC_viability: ACEA Biosciences xCELLigence Real-Time Cell Analysis on Androgen Receptor Antagonism for Viability (AID 2283776);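 further: 22Rv1 human prostate cancer cells growing on impedance electrode plates; area under impedance growth curve at 80 h after dosing as viability; hits lower the growth signal relative to DMSO meaning cytotoxicity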
How it was run: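 Viability endpoint from label-free cell-index monitoring: 22Rv1 cultures treated with an eight-point 1:4 dilution series starting at 100 uM final, AUC at 80 h fitted against DMSO.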

The chains behind the UniProt entries cited, without tags or fusion partners. Where a name states a change or a piece, a line headed by the entry shows the natural chain unless it says otherwise.
UniProt P37231: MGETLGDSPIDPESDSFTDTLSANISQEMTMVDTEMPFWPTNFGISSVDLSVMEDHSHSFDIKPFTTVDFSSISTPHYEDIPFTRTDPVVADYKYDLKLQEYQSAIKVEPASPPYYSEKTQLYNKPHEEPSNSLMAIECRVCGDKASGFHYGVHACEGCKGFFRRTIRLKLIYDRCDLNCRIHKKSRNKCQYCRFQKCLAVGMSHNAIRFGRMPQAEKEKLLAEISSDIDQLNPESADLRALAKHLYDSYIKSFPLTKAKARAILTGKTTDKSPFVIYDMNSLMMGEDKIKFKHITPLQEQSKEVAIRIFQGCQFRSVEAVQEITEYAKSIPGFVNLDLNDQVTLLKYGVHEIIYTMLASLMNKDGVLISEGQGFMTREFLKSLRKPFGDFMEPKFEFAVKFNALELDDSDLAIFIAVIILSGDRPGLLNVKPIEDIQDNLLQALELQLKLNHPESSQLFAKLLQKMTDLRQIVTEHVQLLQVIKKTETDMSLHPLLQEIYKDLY
UniProt P03372, whole entry, looked up: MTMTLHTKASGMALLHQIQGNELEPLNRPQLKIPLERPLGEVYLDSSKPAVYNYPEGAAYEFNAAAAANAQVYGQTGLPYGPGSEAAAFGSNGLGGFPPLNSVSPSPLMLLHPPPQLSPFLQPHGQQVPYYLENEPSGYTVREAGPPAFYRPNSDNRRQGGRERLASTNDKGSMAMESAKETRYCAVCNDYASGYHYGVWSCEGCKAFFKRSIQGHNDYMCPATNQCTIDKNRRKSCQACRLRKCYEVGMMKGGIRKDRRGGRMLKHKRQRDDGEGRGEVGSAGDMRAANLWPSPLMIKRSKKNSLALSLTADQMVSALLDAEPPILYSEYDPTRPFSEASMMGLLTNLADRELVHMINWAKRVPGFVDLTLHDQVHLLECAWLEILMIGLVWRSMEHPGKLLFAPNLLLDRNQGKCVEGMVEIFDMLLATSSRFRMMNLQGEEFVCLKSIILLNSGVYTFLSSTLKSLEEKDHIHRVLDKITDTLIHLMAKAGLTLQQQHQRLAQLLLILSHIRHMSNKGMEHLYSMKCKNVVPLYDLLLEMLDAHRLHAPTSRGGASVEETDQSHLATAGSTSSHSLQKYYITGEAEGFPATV
UniProt Q96RI1: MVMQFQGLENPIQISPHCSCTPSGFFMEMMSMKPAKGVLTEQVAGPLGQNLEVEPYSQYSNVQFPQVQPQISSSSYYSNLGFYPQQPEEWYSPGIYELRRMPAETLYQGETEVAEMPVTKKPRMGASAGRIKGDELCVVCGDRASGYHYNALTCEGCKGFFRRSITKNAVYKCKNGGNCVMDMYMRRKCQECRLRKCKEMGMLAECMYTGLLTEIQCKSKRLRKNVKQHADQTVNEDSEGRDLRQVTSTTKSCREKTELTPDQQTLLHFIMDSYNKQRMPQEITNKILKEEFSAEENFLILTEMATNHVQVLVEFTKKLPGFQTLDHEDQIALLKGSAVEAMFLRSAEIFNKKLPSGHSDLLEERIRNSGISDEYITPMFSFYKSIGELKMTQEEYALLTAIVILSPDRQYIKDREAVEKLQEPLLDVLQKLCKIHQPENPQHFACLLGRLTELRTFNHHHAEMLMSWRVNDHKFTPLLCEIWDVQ
UniProt P19793: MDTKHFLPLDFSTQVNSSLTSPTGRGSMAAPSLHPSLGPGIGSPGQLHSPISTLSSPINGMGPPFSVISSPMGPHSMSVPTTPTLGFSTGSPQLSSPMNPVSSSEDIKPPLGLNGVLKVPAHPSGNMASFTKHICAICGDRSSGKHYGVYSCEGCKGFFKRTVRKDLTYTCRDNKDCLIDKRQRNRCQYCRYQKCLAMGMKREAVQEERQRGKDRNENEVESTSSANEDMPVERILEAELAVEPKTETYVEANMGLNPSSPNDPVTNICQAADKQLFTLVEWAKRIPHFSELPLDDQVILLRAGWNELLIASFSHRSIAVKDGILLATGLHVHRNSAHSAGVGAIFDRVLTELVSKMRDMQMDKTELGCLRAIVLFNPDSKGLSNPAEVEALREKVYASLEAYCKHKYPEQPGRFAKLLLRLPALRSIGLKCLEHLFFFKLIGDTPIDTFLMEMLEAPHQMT
UniProt P04637, whole entry, looked up: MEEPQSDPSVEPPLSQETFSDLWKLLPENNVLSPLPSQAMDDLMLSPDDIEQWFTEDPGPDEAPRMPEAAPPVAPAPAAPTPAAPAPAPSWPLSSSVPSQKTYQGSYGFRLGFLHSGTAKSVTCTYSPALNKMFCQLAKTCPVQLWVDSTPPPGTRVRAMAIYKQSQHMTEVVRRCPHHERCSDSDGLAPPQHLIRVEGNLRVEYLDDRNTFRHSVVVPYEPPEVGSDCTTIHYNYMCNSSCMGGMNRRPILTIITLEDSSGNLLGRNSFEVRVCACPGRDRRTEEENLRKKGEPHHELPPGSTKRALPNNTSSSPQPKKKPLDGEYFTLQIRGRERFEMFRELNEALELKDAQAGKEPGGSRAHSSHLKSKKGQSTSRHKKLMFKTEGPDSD

[3] = biological target: Peroxisome proliferator-activated receptor gamma (Homo sapiens) (UniProt P37231); experiment: OT_PPARg_PPARgSRC1_0480: Odyssey Thera (OT) 8-hour Protein-Complementation Assay for Peroxisome Proliferator-activated Receptor Gamma / SRC-1 Co-activator (AID 2283387);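 further: nuclear to cytoplasmic split Venus YFP fluorescence ratio reporting PPARg SRC-1 interaction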
How it was run: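 Split-YFP (IFP1/IFP2) PPARg/SRC-1 reporter, HEK293T, 37 °C, 5% CO2; 8 h compound; formaldehyde fix + Draq5; high-content imaging, N/C ratio, ≥350 cells/image, positive direction vs DMSO.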

[4] = CCTE_Shafer_MEA_dev_bursting_electrodes_number: CCTE's Neural Network Formation Assay for Number of Bursting Electrodes, Shafer Lab (AID 2284043)
How it was run: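 Primary rat cortical neurons plated on 16-electrode MEA wells, exposed from day 0 with compound renewed at DIV 5 and 9. Electrodes bursting ≥1 burst per 2 min counted on days 5, 7, 9 and 12; trapezoidal AUC across days, fitted for loss versus DMSO.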

[5] = biological target: Estrogen receptor (Homo sapiens) (UniProt P03372); experiment: OT_ERa_GFPERaERE_0120: Odyssey Thera (OT) 2-hour HeLa Transcription Induction Assay for Estrogen Receptor (AID 2283382)
How it was run: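 Measures ESR1 pathway reporter gain-of-signal in HeLa cells after a 2-hour treatment, detected as fluorescent protein induction by microscopy, DMSO as baseline.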

[6] = biological target: Bile acid receptor (Homo sapiens) (UniProt Q96RI1); experiment: OT_FXR_FXRSRC1_0480: Odyssey Thera (OT) 8-hour HEK293T Protein-Complementation Assay for Farnesoid X receptor/SRC-1 Co-activator (AID 2283383)
How it was run: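 Co-activator recruitment to FXR was measured in living HEK293T cells, where interaction of the two fused partners restored an active fluorescent reporter. Signal gain after 8 h treatment was referenced to DMSO.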

[7] = biological target: Estrogen receptor (Homo sapiens) (UniProt P03372); experiment: OT_ERa_GFPERaERE_0480: Odyssey Thera (OT) 8-hour HeLa Transcription Induction Assay for Estrogen Receptor (AID 2283381; active means hit-call score of the fitted dose curve at least 0.9, where 1 is the maximum; inactive means score below 0.9)
How it was run: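 Cells (HeLa) receive compound; after 8 h, reporter fluorescence is imaged and quantified by high-content analysis. Gain-of-signal relative to DMSO gives the endpoint.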

[8] = CEETOX_H295R_11DCORT: CeeTox H295R High-throughput Steroidogenesis Assay for 11-Deoxycortisol (11DCORT) (AID 2283432; active means hit-call score of the fitted dose curve at least 0.9, where 1 is the maximum; inactive means score below 0.9); details: actives raise or lower the signal
How it was run: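 Steroidogenesis in human H295R cells: 48 h chemical exposure after forskolin priming, 11-deoxycortisol measured by LC-MS/MS.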

[9] = CEETOX_H295R_CORTIC: CeeTox H295R High-throughput Steroidogenesis Assay for Corticosterone (CORTIC) (AID 2283437; active means hit-call score of the fitted dose curve at least 0.9, where 1 is the maximum; inactive means score below 0.9;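 further: corticosterone secreted into medium quantified by mass spectrometry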); details: actives raise or lower the signal
How it was run: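 H295R adrenal cells prestimulated 48 hours with 10 uM forskolin, then exposed 48 hours to chemical in 0.1% DMSO. Corticosterone in medium measured by HPLC-MS/MS after MTBE extraction; MTT viability in the same wells; bidirectional fit versus DMSO.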

[10] = CEETOX_H295R_PROG: CeeTox H295R High-throughput Steroidogenesis Assay for Progesterone (PROG) (AID 2283442; active means hit-call score of the fitted dose curve at least 0.9, where 1 is the maximum; inactive means score below 0.9); details: actives raise or lower the signal
How it was run: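 Measured analyte is progesterone secreted by H295R cells at 48 h of chemical treatment, following 10 uM forskolin priming. Quantitation used HPLC-MS/MS against a 7-point standard curve; cytotoxicity was checked by MTT absorbance.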

[11] = read-out: Peroxisomal acyl-coenzyme A oxidase 1 (ACOX1) gene, ACOX1 (gene 51); experiment: LTEA_HepaRG_ACOX1: Life Technologies and Expression Analysis (LTEA) Assay for Peroxisomal acyl-coenzyme A oxidase 1 (ACOX1) gene using HepaRG (AID 2283467; active means hit-call score of the fitted dose curve at least 0.9, where 1 is the maximum; inactive means score below 0.9); details: actives raise or lower the signal; mRNA level, 48 h
How it was run: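 HepaRG cells, plated 48 h then switched to serum-free induction medium, were exposed in duplicate for 48 h to 8-point half-log concentrations up to 100 uM in 0.5% DMSO. ACOX1 mRNA was measured by qRT-PCR, normalized to ACTB/GAPDH/POLR2A, and fitted bidirectionally versus DMSO.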

[12] = biological target: Retinoic acid receptor RXR-alpha (Homo sapiens) (UniProt P19793); experiment: OT_NURR1_NURR1RXRa_0480: Odyssey Thera (OT) 8-hour HEK293T Protein Complementation Assay for Nurr1/retinoid X receptor (RXR) (AID 2283385)
How it was run: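 Compounds are applied to HEK293T cells carrying Nurr1 and RXRα linked to reporter fragments. After 8 h, fluorescence intensity reports heterodimer formation, with DMSO as baseline.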

[13] = biological target: Cellular tumor antigen p53 (Homo sapiens) (UniProt P04637); experiment: TOX21_p53_BLA_p3_ratio: Tox21 HCT-116 p53 Agonism Beta-lactamase Assay, Ratio, Phase 3 (AID 2283596)
How it was run: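 HCT116 p53-bla cells (4000/well) given compound in DMSO (217-fold dilution) after 5 h, incubated 16 h at 37C. CCF4-AM substrate 2 h at room temperature; 460/530 nm emission ratio, gain fitted against DMSO.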

In the case of `CC1(C)C(=O)N(Cl)C(=O)N1Br`, the outcome [1] is reported as “inactive” and the outcome [2] is reported as “inactive”.

With `CC(CCl)OP(=O)(OC(C)CCl)OC(C)CCl` (stereo not given) the outcome [3] was “inactive” and the outcome [4] was “inactive”.

For `CCCCCc1ccc(N)cc1`, the outcome [5] was “inactive”.

With `CC(C=O)Cc1ccc(C(C)(C)C)cc1` (stereo not given) the AC50 [6] was active: 76.7 µM.

For `CCCC[N+](C)(CCCC)CCCC`, the outcome [7] was “inactive” and the outcome [5] was “inactive”.

For `CC(COCC(C)OC(=O)c1ccccc1)OC(=O)c1ccccc1` (stereo not given), the outcome [8] was “inactive”, the outcome [1] was “inactive” and the outcome [9] was “inactive”. For the same molecule, the outcome [10] was “inactive” and the outcome [11] was “inactive”.

In the case of `Cn1c(=O)cc(Oc2ccc(F)cc2F)c2cnc(NCC(C)(C)O)nc21`, the outcome [12] is reported as “inactive” and the outcome [13] is reported as “inactive”.

— PubChem BioAssay (EPA / NIEHS)
